Laboratory results from patent publication EP0453119A1, “Modified beta adrenergic receptor” (MERCK & CO. INC., priority 1990, dated 1991).
Some entries share one result that the patent states for a list of compounds.

By UniProt entry, the sequences of proteins in these tests, tags left out.
UniProt P04274, whole entry D113S: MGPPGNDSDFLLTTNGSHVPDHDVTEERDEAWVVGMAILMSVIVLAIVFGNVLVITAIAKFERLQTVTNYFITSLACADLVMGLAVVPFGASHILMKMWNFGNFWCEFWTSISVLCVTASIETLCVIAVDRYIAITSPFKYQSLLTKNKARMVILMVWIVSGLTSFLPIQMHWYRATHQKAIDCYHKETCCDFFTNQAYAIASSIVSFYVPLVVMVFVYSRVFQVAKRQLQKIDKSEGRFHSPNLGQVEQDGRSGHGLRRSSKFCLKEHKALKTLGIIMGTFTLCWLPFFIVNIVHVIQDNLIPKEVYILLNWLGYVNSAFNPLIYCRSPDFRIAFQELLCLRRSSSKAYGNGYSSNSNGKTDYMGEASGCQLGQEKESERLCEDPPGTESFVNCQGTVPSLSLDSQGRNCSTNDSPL

Biological target: T1, [Ser^113]βAR (Mesocricetus auratus, UniProt P04274, D113S)
T1 construct: pSVHAC contains the full length hamster ß₂AR cDNA cloned into the EcoRI site of pSVL; expressed in transfected cells; host or cells: mouse L cells (clonal lines, membranes)
Assay: Adenylyl cyclase stimulation in membranes of mouse L cells expressing the mutant receptor
Format: biochemical, hamster
Settings: result in words, acids compared with the corresponding esters
Method: Mutagenesis of the ßAR gene. […] Other standard cloning techniques were performed as described by the former Manual and would be easily reproduced by anyone trained in molecular biology. An oligonucleotide 19 nucleotides in length complementary to the phage DNA surrounding the codon for Asp¹¹³ were synthesized using an Applied Biosystems Model 3A DNA synthesizer. The oligonucleotide contained mismatched positions in order to convert the codon for Asp¹¹³ (GAT) to Ser ([…]). The oligonucleotide was annealed to the phage DNA for priming and extended using Klenow DNA polymerase and T4 DNA ligase. […] The ßAR gene in this vector utilizes the SV40 early promoter, the modified splice signal, and the ßAR polyadenylation site for expression. […]
The reaction was allowed to proceed for 30 min at 30°C before it was quenched at 4°C with an excess of unlabeled ATP. The ³²P-cAMP produced was determined by Dowex and alumina chromatography, as described by Salomon et al., supra.
Data Analysis. […] The Michaelis-Menton equation was used: V=Vmax[A]/Kact+[A], where V is the level of cyclase stimulation (in pmol ³²P-cAMP/mg protein/min) measured at a given agonist concentration [A], and Vmax is the calculated maximal stimulation at infinite agonist concentration.

## CCOC(=O)c1ccc(O)c(O)c1 [Compound 19]
  activation of [Ser¹¹³]ßAR: enhances activity

## CCC(=O)c1ccc(O)c(O)c1 [Compound 16]
  activation of [Ser¹¹³]ßAR: enhances activity
